Measurements from publication PMC7577714, “Regulation of chaperone function by coupled folding and oligomerization” (Science Advances, 2020).
Results are given in words; binding and its absence hold for the method and conditions named.

Key:
Skp(A108R) (E. coli) [1] = molecular target: Skp(A108R) (E. coli) (UniProt P0AEU7); assay: solution NMR (signal intensities of monomer and trimer); Skp variants alone at 37°C, 20 mM MES pH 6.5, 150 mM NaCl; monomer to trimer; both purified
Skp(A108R) (E. coli) [2] = molecular target: Skp(A108R) (E. coli) (UniProt P0AEU7); assay: SEC-MALS; Skp variants alone, elution concentration ≃80 μM, 25°C, 20 mM MES pH 6.5, 150 mM NaCl; monomer to trimer; both purified
Skp(A108R) (E. coli) [3] = molecular target: Skp(A108R) (E. coli) (UniProt P0AEU7); assay: solution NMR (signal intensities of monomer and trimer) + SEC-MALS; fraction of monomer against total Skp concentration, 25°C, 20 mM MES pH 6.5, 150 mM NaCl; monomer to trimer; C0.5 is the protein concentration at which half of the molecules are monomeric; both purified

binding (Skp(A108R) (E. coli) [1]): no binding | binding (Skp(A108R) (E. coli) [2]): no binding (tested: ≃80 μM)
B1: Skp(A108R) (natural protein, E. coli, UniProt P0AEU7 21-161, looked up)
chain: ADKIAIVNMGSLFQQVAQKTGVSNTLENEFKGRASELQRMETDLQAKMKKLQSMKAGSDRTKLEKDVMAQRQTFAQKAQAFEQDRARRSNEERGKLVTRIQTAVKSVRNSQDIDLVVDANAVAYNSSDVKDITADVLKQVK
notes: Fully monomeric up to 1 mM; source: E. coli BL21-(λ DE3)-Lemo, purified (Ni-NTA, SEC); not shown: His6, N-terminal, kept
binding (Skp(A108R) (E. coli) [3]): no binding (tested: up to 1 mM; C0.5 >1000 μM)
